Measured values taken from patent publication US11912781B2, “Humanized complement 5A receptor 1 antibodies and methods of use thereof” (VISTERRA, INC., priority 2021, dated 2024).
Not every entry of the source has a single result; some have several. Only these are listed. The source may hold further records. Results that share an entry differ, and nothing given here explains why; dose, time, organism, isomer or construct need not be as stated for each record.

Tested on: hC5aR1 mice
Assay: C5a-induced neutropenia in transgenic human C5aR1 mice
Assay type: in vivo, mouse
Conditions: antibody 20 mg/kg or avacopan 30 mg/kg IV 1 h before 0.1 mg/kg human C5a, 1 min post-C5a
Experimental: Briefly, five groups of hC5aR1 mice were evaluated for inhibition of neutropenia. In the first group, 5 hC5aR1 mice were injected with PBS (vehicle), intravenously. […] In the third group, group 5 hC5aR1 mice were injected with exemplary biparatopic anti-C5aR1 antibody, c2137-e1711, intravenously at a dose of 20 mg/kg. In the fourth group, 5 hC5aR1 mice were injected with non-C5aR1 antibody (Motavizumab) intravenously at a dose of 20 mg/kg. In the fifth group, 5 hC5aR1 mice were injected with avacopan at a dose of 30 mg/kg, intravenously. One hour after injection of the PBS, exemplary antibodies, motavizumab or avacopan, 0.1 mg/kg of human C5a was injected into the hC5aR1 mice. The blood was collected after 1 min, 5 min and 2 hr after injection of human C5a. The percent chance in neutrophils and average change in neutrophils were calculated in all three groups and are shown in FIG. 15B-15C. Neutrophil cell counts were assessed by gating CD45+/CD11b+/Ly6G+ cells.
The experimental details of this mouse in vivo assay are described in Example 11.
Table 19 summarizes the dosage regimen of the antibodies being tested, and the bleed times to determine neutropenia.

For `Cc1ccc(NC(=O)[C@H]2CCCN(C(=O)c3c(C)cccc3F)[C@H]2c2ccc(NC3CCCC3)cc2)cc1C(F)(F)F` [Avacopan], the “average reduction in neutrophil counts from baseline” value was 59% and 10%.
